Results as given in PubChem BioAssay AID1347075 (National Center for Advancing Translational Sciences (NCATS), 2019).
Among all 400,000 compounds or so, about 5,500 (1.4%) were called active. The inconclusive results got no clear call from the source; some entries with a clear call stand among them for comparison. Calls follow the shape of the dose curve; as a rule, active = well fitted cell-killing curve with a large enough effect; inconclusive = small, poorly fitted or top-dose-only effect, or effect the other way; inactive = flat fitted curve, though single readings scatter. A potency beside an inconclusive call is a rough fit, not a confirmed value.

assay: qHTS assay for MDR1-selective chemotherapeutics: Primary screen using the parental adenocarcinoma cell KB-3-1; settings: KB-3-1 viability, CellTiter-Glo ATP luminescence, 72 h; activity change, negative = cytotoxic: at 46.1 µM (top of the series); also: nearly all actives have a fitted effect of over 60% in size
Summary of the method: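 Viability of parental KB-3-1 cells, measured by CellTiter-Glo luminescence, followed a 72 h incubation at 37 °C with pinned compounds in phenol-red-free DMEM containing 10% FBS.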
% is scaled to controls: 0 for no effect and ±100 for the full control effect; potency is read from the fitted curve at half-maximal effect.

Row | SMILES | Potency | activity change, negative = cytotoxic
1 | Cc1ccc(/C=N/NC(=O)c2csc3c2CCCC3)cc1 | active: 2.06 µM | 
2 | O=C(Nc1ccc(NC(=O)c2ccccc2F)cn1)c1ccco1 | inactive | 
3 | CCOc1ccc(C(=O)NC(=S)Nc2cccc(S(=O)(=O)NC3=NCCC3)c2)cc1 | active: 2.31 µM | 
4 | O=C1CCCc2ccccc2N1Cc1ccc(F)cc1 | inactive | 
5 | CC(C)NC(=O)c1ccccc1NC(=O)/C=C/c1cccc([N+](=O)[O-])c1 | inconclusive: 14.6 µM [rising, single point] | 
6 | O=C(Nc1cccc(S(=O)(=O)N2CCCC2)c1)c1ccc(Cl)nc1 | inconclusive: 3.26 µM [cytotoxic, full curve, poor fit] | 
7 | O=c1[nH]c(N2CCOCC2)nc2ncn(Cc3ccccc3)c12 | inconclusive: 11.6 µM [rising, partial curve, poor fit] | 
8 | CC1=NN(C(=O)c2c(Br)cnn2C)C(O)(C(F)(F)F)C1 (centres undefined) | inactive | 
9 | Fc1ccccc1N1CCN(C(c2ccnc3ccccc23)c2nnnn2-c2ccc3c(c2)OCCO3)CC1 (centres undefined) | inconclusive: 20.6 µM [cytotoxic, single point] | 
10 | CC(C)c1ccc(C(C)NC(=O)C2CCCC2)cc1 (centres undefined) | inconclusive: 29.1 µM [cytotoxic, single point] | 
11 | COc1ccc(C2SCCN2C(=S)Nc2ccc(Cl)cc2)cc1 (centres undefined) | inconclusive: 20.6 µM [cytotoxic, single point] | 
12 | Cc1nc2nc(C)c(CCC(=O)NC3CCCCC3)c(C)n2n1 | inconclusive: 9.2 µM [rising, partial curve, poor fit] | 
13 | CCC(C)NC(=O)CC1Oc2ccc(Cl)cc2NC1=O (centres undefined) | inconclusive: 16.4 µM [cytotoxic, partial curve, poor fit] | 
14 | CCCOc1ccc(NC(=O)CC2C(=O)Nc3ccccc3N2CC(=O)N2CCCC2)cc1 (centres undefined) | inconclusive: 20.6 µM [cytotoxic, single point] | 
15 | CCOc1ccc(NC(=O)C2CCCN2S(=O)(=O)c2ccc3c(c2)C(C)(C)C(=O)N3C)cc1 (centres undefined) | inconclusive: 32.6 µM [cytotoxic, single point] | 
16 | CCOC(=O)c1c(C)[nH]c(C(=O)COC(=O)c2oc3ccccc3c2C)c1C |  | inconclusive: -6.83%
17 | Cc1ccc(-c2nc3cc(C)c(Br)c(C)n3c2CC(C)(C)C)cc1 | inactive | 
18 | CCCc1nc2ccccc2c(C(=O)OCC(=O)Nc2cccc(S(=O)(=O)N3CCOCC3)c2)c1CC | inconclusive: 29.1 µM [cytotoxic, single point] | 
19 | Cc1nn(Cc2c(Cl)cccc2Cl)c(C)c1NC(=O)c1cnn2c(C(F)F)cc(-c3ccccc3)nc12 | inconclusive: 13 µM [cytotoxic, partial curve, poor fit] | 

Some of the entries above in a different format.
Row	SMILES	Potency	activity change, negative = cytotoxic
12	Cc1nc2nc(C)c(CCC(=O)NC3CCCCC3)c(C)n2n1	inconclusive: 9.2 µM [rising, partial curve, poor fit]	
13	CCC(C)NC(=O)CC1Oc2ccc(Cl)cc2NC1=O (centres undefined)	inconclusive: 16.4 µM [cytotoxic, partial curve, poor fit]	
